Measured values: publication PMC8869655, “Identification of the Kinase-Substrate Recognition Interface between MYPT1 and Rho-Kinase” (Biomolecules, 2022)

Legend:
Test in all cases: pull-down; GST-MYPT1 fragment and GFP-kinase fragment co-transfected in COS7 cells; lysate incubated with Glutathione Sepharose beads 1 h at 4 °C in 20 mM Tris-HCl pH 7.5, 1 mM EDTA, 1 mM DTT, 50 mM NaCl, 0.5% NP-40; washed three times; immunoblot with anti-GST or anti-GFP
[1] = target: T1, GST-MYPT1-684–868 aa (rat) (UniProt Q10728)
T1 sequence: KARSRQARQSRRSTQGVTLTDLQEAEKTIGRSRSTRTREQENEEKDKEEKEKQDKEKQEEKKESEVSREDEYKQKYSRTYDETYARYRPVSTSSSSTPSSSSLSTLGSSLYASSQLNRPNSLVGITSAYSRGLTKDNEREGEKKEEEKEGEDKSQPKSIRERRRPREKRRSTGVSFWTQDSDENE

[2] = target: T2, GST-MYPT1-758–868 aa with deletion of the 814–822 aa region (rat) (UniProt Q10728)
T2 sequence: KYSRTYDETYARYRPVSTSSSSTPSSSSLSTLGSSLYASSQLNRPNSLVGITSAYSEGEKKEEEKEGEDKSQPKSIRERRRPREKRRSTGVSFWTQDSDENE

[3] = target: T3, GST-MYPT1-758–868 aa (rat) (UniProt Q10728)
T3 sequence: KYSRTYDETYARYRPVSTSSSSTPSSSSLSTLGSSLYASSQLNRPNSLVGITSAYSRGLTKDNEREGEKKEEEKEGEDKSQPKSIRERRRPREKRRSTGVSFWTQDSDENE

[4] = target: T4, GST-MYPT1-684–868 aa with DM1 deleted (rat) (UniProt Q10728)
T4 sequence: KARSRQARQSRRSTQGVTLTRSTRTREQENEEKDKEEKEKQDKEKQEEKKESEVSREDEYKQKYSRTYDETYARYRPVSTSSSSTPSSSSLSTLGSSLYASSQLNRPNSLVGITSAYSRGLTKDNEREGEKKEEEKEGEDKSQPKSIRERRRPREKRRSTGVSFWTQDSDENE

[5] = target: T5, GST-MYPT1-684–868 aa with DM2 deleted (rat) (UniProt Q10728)
T5 sequence: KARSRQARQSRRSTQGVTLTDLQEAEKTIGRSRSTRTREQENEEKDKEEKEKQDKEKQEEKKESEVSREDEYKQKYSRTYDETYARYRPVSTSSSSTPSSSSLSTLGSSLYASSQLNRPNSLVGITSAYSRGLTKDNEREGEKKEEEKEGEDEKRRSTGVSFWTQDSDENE

[6] = target: T6, GST-MYPT1-684–758 aa (rat) (UniProt Q10728)
T6 sequence: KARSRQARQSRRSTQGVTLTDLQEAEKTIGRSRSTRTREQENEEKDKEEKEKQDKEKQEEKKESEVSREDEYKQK

[7] = target: T7, GST-MYPT1-684–868 aa with both DM1 and DM2 deleted (rat) (UniProt Q10728)
T7 sequence: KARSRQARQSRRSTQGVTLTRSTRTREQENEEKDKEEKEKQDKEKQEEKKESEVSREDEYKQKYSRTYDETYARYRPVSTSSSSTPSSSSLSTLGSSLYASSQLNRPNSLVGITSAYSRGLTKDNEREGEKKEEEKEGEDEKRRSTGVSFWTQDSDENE

[8] = target: T8, GST-MYPT1-758–868 aa with deletion of the 822-835 aa region (rat) (UniProt Q10728)
T8 sequence: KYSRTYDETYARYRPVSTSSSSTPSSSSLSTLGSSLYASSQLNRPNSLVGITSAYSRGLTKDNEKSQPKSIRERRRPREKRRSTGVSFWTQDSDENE

| Substance | binding [1] | binding [2] | binding [3] | binding [4] | binding [5] | binding [6] | binding [7] | binding [8] |
| --- | --- | --- | --- | --- | --- | --- | --- | --- |
| Rho-kinase part of the coiled-coil fragment (418–553 aa) (bovine) (domain or fragment) | binds weakly |  |  |  |  |  |  |  |
| GFP-Rho-kinase-cat (6–418 aa, core catalytic fragment) (bovine) (domain or fragment) | binds weakly | binds | binds | binds weakly | binds weakly | binds | no binding | binds |

These are yes or no findings as the source states them, for the method shown. In cells and extracts the contact can be indirect. For part of these data: A result given as binding can be weak or reduced; the word gives no strength. Tags and fused reporters may be left off the sequences shown.
